Paper PMC10950329
These are yes or no findings as the source states them, for the method shown. In cells and extracts the contact can be indirect. Here binding means that the protein was enriched with, or labelled near, the bait; the list need not be complete.

By UniProt entry, the sequences of proteins in these tests, tags left out.
UniProt O08808: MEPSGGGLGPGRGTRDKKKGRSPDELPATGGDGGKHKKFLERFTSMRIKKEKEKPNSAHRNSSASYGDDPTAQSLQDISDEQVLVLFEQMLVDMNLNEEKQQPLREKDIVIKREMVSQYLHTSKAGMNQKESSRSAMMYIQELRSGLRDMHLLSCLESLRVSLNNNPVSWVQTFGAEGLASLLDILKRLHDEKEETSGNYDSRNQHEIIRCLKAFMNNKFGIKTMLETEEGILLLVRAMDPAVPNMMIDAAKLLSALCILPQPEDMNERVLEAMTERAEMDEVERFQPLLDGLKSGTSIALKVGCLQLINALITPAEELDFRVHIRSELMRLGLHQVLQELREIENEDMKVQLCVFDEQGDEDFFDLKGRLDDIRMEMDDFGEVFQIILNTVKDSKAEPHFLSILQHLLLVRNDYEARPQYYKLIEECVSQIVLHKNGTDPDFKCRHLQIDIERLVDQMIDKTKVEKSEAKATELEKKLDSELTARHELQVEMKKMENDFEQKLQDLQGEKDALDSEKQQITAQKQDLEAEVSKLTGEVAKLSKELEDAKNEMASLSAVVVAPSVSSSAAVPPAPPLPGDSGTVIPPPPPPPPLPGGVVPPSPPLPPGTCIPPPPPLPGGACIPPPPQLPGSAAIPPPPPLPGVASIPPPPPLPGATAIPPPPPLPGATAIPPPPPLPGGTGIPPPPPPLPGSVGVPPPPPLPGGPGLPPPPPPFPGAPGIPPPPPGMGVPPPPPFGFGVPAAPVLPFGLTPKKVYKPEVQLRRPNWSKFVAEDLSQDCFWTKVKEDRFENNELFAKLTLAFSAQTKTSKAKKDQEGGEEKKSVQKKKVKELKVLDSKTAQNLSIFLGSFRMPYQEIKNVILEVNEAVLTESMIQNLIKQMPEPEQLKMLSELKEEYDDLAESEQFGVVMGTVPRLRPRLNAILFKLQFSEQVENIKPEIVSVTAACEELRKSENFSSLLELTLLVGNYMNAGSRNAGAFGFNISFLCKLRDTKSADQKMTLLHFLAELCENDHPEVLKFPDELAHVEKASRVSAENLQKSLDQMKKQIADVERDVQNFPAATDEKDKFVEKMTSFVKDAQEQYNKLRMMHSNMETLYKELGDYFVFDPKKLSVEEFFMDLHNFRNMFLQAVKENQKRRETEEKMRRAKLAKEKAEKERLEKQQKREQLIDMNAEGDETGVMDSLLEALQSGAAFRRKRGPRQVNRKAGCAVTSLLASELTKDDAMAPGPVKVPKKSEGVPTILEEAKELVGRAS
UniProt Q61644: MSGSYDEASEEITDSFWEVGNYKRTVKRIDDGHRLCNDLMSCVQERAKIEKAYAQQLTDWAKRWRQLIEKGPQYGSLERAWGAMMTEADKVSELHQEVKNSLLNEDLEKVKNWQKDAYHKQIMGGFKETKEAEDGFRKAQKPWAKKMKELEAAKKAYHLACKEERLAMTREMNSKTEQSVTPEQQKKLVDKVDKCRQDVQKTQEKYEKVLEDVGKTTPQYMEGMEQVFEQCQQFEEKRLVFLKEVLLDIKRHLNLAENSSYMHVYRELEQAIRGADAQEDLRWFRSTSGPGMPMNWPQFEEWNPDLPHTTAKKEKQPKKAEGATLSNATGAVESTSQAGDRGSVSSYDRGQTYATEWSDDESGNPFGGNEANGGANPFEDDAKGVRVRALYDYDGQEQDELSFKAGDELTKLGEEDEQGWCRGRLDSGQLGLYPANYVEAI
UniProt Q8CHC4: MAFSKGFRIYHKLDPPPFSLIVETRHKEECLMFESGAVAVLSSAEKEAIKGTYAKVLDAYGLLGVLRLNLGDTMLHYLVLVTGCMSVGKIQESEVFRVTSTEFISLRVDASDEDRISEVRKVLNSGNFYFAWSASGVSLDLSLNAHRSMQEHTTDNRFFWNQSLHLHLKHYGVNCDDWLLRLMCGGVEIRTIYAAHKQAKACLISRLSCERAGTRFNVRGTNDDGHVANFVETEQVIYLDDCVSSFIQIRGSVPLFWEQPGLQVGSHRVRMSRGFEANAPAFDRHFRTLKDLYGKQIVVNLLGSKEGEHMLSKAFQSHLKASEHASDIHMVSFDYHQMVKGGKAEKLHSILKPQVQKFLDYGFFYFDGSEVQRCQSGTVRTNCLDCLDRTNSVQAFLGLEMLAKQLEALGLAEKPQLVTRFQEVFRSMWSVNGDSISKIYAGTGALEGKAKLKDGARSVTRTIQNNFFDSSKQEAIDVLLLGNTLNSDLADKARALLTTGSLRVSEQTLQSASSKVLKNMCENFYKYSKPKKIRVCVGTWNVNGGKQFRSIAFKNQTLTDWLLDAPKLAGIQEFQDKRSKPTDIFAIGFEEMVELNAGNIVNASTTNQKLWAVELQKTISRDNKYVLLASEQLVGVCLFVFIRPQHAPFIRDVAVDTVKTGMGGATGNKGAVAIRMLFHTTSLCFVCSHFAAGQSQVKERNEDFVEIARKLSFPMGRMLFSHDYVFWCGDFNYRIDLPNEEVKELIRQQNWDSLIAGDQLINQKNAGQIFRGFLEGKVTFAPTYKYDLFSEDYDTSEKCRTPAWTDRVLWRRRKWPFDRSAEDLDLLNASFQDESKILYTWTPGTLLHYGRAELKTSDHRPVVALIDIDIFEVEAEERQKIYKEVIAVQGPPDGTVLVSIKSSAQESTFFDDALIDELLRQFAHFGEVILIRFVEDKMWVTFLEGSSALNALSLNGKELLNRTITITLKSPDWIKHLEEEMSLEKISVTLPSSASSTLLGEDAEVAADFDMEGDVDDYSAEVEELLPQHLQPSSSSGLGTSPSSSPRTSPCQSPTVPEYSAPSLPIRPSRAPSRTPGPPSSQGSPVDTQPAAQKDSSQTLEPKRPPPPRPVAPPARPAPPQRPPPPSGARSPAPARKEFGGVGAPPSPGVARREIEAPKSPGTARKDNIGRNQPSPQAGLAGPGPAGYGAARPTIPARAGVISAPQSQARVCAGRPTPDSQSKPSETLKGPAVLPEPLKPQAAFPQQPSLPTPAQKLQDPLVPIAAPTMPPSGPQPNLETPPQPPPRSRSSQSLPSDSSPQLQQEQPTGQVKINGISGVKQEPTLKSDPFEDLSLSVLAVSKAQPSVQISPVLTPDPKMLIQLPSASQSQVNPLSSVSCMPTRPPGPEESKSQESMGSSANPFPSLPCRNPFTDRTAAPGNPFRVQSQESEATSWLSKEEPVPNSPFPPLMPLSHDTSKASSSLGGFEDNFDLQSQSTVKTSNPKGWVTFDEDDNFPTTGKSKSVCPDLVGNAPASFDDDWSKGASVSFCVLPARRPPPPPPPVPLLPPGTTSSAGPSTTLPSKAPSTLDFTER
UniProt Q9WVE8: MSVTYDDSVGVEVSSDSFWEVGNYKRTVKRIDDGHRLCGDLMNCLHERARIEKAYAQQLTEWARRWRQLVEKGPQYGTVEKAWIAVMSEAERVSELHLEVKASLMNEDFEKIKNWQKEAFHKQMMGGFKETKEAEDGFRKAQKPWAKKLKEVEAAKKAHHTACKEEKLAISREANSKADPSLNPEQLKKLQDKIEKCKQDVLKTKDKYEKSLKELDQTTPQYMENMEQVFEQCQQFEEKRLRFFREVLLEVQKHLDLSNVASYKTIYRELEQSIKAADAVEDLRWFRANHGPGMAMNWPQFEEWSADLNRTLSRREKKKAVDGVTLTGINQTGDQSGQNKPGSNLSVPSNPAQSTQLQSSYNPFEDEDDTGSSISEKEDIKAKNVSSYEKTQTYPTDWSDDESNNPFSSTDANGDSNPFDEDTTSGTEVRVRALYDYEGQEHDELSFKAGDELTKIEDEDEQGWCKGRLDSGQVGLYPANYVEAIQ

Target: mDia1 (mouse (endogenous in brain synaptosomes)) (UniProt O08808)
Assay: affinity purification with mass spectrometry; anti-mDia1 versus control IgG immunoprecipitates from detergent-extracted (1% CHAPS) mouse synaptosomes (P2' fraction), Protein A/G magnetic beads, 4 °C; label-free LC-MS, N=3

binding | Molecule
binds | PACSIN1 (from UniProt Q61644 1-441)
binds | Synaptojanin1 (from UniProt Q8CHC4 1-1574)
binds | PACSIN2 (from UniProt Q9WVE8 1-486)
binds | Amphiphysin (protein, UniProt Q7TQF7 1-686) MADIKTGIFAKNVQKRLNRAQEKVLQKLGKADETKDEQFEEYVQNFKRQEAEGTRLQRELRGYLAAIKGMQEASMKLTESLHEVYEPDWYGREDVKMVGEKCDVLWEDFHQKLVDGSLLTLDTYLGQFPDIKNRIAKRSRKLVDYDSARHHLEALQSSKRKDESRISKAEEEFQKAQKVFEEFNVDLQEELPSLWSSRVGFYVNTFKNVSSLEAKFHKEIAVLCHKLYEVMTKLGDQHADKAFSIQGAPSDSGPLRIAKTPSPPEEPSPLPSPTASPNHTLAPASPAPVRPRSPSQTRKGPPVPPLPKVTPTKELKQENIINFFEDNFVPEINVTTPSQNEVLEVKKEETLLDLDFDPFKPDVAPAGSAAATHSPMSQTLPWDLWTTSTDLVQPASGGSFNDFTQAQDTSLFTMQTDQNMAETEQALPTEPQAEEPPATAAAPTAGLDLGLEMEEPKEEAVIPPATDTGETVETAVPTEGAPVEEAEAEKAALPAGEGGSPEGAKIDGESTELAISESPQPVEPEAGAPQVIPSVVIEPASNHEGEGEHQETATGTEPREAAEDVAAQGSAGEKQEVATEPTPLDSQATLPASAGAVDASLSAGDATQELPPGFLYKVETLHDFEAANSDELNLQRGDVVLVVPSDSEADQDAGWLVGVKESDWLQYRDLATYKGLFPENFTRRLE
binds | Dynamin1 (protein, UniProt P39053 1-867) MGNRGMEDLIPLVNRLQDAFSAIGQNADLDLPQIAVVGGQSAGKSSVLENFVGRDFLPRGSGIVTRRPLVLQLVNSTTEYAEFLHCKGKKFTDFEEVRLEIEAETDRVTGTNKGISPVPINLRVYSPHVLNLTLVDLPGMTKVPVGDQPPDIEFQIRDMLMQFVTKENCLILAVSPANSDLANSDALKIAKEVDPQGQRTIGVITKLDLMDEGTDARDVLENKLLPLRRGYIGVVNRSQKDIDGKKDITAALAAERKFFLSHPSYRHLADRMGTPYLQKVLNQQLTNHIRDTLPGLRNKLQSQLLSIEKEVDEYKNFRPDDPARKTKALLQMVQQFAVDFEKRIEGSGDQIDTYELSGGARINRIFHERFPFELVKMEFDEKELRREISYAIKNIHGIRTGLFTPDMAFETIVKKQVKKIREPCLKCVDMVISELISTVRQCTKKLQQYPRLREEMERIVTTHIREREGRTKEQVMLLIDIELAYMNTNHEDFIGFANAQQRSNQMNKKKTSGNQDEILVIRKGWLTINNIGIMKGGSKEYWFVLTAENLSWYKDDEEKEKKYMLSVDNLKLRDVEKGFMSSKHIFALFNTEQRNVYKDYRQLELACETQEEVDSWKASFLRAGVYPERVGDKEKASETEENGSDSFMHSMDPQLERQVETIRNLVDSYMAIVNKTVRDLMPKTIMHLMINNTKEFIFSELLANLYSCGDQNTLMEESAEQAQRRDEMLRMYHALKEALSIIGDINTTTVSTPMPPPVDDSWLQVQSVPAGRRSPTSSPTPQRRAPAVPPARPGSRGPAPGPPPAGSALGGAPPVPSRPGASPDPFGPPPQVPSRPNRAPPGVPSLGAWRLNSPQGKHENRAGKARL
